Experimental data from paper doi:10.1101/2025.11.10.687720, “Magnetosome organelles are organized through interactions between McaA and McaB that alter the dynamics of the bacterial actin-like protein MamK” (bioRxiv, 2025).
No constants are given. Whether binding was seen depends on the method and setting. Binding seen in cells or lysates may run through a third protein. Binding calls can cover weak binding; strength is not graded here. Sequences can lack the tags named with a protein.

B1: MamK-Flag (protein, UniProt Q2W8Q6 1-347)
chain: MSEGEGQAKNRLFLGIDLGTSHTAVMSSRGKKFLLKSVVGYPKDVIGLKLLGRPYVVGDEAFEMRSYLDIRYPLQDGVLSEISDRDIEVARHLLTHVVKSAEPGPNDEICAVIGVPARASAANKALLLKMAQEVVHTALVVSEPFMVGYGLDKLINTIIVDIGAGTTDICALKGTVPGPEDQVTLTKAGNYVDERLQNAILERHPELQMNVNVACAVKEQFSFVGTPTEVASFEFRAAGKPVRADVTEPVKIACEALMPDIIESIETLLRSFQPEYQATVLQNIVFAGGGSRIRGLAAYVKEKLRPFGDANVTCVKDPTFDGCRGALRLAEELPPQYWRQLGDVSGS
B2: Mms6-Halo (protein, UniProt Q2W8R5 1-133)
chain: MGEMEREGAAAKAGAAKTGAAKTGTVAKTGIAAKTGVATAVAAPAAPANVAAAQGAGTKVALGAGKAAAGAKVVGGTIWTGKGLGLGLGLGLGAWGPIILGVVGAGAVYAYMKSRDIESAQSDEEVELRDALA

Tests used:
Test in all cases: co-IP; GFP-tagged bait in AMB-1 lysate (NP-40 lysis) on GFP-Trap agarose beads, 1 hr at 4°C, washed with 10 mM Tris-HCl, 150 mM NaCl, pH 7.4; Western blot of the elution; strains ΔmcaAB, ΔmamKΔmcaA, ΔMAIΔMIS, WT, ΔmcaA, ΔmcaBΔmamK, ΔmamKΔmamK-like, Δmms6; biomineralization conditions
[1] = molecular target: McaA-GFP (Magnetospirillum magneticum AMB-1)
[2] = molecular target: McaAΔ530-GFP (Magnetospirillum magneticum AMB-1)
[3] = molecular target: McaB-GFP (Magnetospirillum magneticum AMB-1)

Row | Binder | binding [1] | binding [2] | binding [3]
1 | B1 | binds | binds | binds
2 | B2 |  |  | no binding
